Data as given in patent publication US9254268B2, “Compositions comprising lipophilic active compounds and method for their preparation” (SOLUBEST LTD., priority 2007, dated 2016).

Assay: Thermal properties by Differential Scanning Calorimetry (DSC)
Settings: after preparation

In the case of `COC(=O)C1=C(C)NC(C)=C(C(=O)OC)C1c1ccccc1[N+](=O)[O-]` [Raw nifedipine crystalline powder, Nifedipine], the “melting enthalpy (melting energy)” value is reported as 113.4 J/g and the “melting temperature (endothermic peak)” value is reported as “around 172.4 °C”.
